This is one part of the list.
These targets were tested with O=C(O)c1ccc2c(c1)nc(Nc1cccc(Cl)c1)c1ccncc12 [silmitasertib] (assay: log2 fold change, soluble protein after heating vs DMSO (PISA); higher = thermal stabilisation; K562 lysate, 10 uM; active = over 0.2 and 3.5 SD of the protein, either way, in both replicates (recomputed)).
Summary of the method: (§1)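 To prepare the extract, K562 pellets were dounce-homogenised in PBS pH 7.4 with 1 mM MgCl2, giving crude material at 1 mg/mL protein. This was treated with 10 μM compound for 30 min, then heated in aliquots for 3 min over 48°C-58°C before pooling and addition of NP-40 to 0.5% at 4°C. Centrifugation at 21,000xg for 90 min left soluble protein in the supernatant, which TMTpro 16plex LC-MS/MS quantified with equalised channel sums. Results are log-two fold changes in thermal stability compared with solvent controls, from duplicates.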

By UniProt entry, the sequences of proteins in these tests, tags left out. Where a name states a change or a piece, a line headed by the entry shows the natural chain unless it says otherwise.
UniProt O60936: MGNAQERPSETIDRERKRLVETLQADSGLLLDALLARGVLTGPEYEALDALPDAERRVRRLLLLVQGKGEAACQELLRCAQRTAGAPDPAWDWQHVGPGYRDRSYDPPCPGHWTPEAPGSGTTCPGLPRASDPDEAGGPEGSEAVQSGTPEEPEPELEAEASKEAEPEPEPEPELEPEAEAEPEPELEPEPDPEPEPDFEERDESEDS
UniProt O75052: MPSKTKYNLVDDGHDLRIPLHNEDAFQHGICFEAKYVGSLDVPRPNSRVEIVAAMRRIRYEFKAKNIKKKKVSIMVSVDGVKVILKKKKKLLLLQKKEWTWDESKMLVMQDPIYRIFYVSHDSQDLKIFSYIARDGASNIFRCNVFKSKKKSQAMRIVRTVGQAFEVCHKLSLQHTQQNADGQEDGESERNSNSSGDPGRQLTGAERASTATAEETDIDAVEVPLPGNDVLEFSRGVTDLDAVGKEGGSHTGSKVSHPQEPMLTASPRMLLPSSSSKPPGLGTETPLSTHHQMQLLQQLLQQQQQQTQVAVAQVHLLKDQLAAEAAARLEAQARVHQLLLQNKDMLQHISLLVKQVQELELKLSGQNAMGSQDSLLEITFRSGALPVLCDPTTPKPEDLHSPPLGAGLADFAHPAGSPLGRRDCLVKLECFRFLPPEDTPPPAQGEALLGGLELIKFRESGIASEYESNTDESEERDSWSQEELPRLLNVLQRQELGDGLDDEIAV
UniProt Q9UHY1: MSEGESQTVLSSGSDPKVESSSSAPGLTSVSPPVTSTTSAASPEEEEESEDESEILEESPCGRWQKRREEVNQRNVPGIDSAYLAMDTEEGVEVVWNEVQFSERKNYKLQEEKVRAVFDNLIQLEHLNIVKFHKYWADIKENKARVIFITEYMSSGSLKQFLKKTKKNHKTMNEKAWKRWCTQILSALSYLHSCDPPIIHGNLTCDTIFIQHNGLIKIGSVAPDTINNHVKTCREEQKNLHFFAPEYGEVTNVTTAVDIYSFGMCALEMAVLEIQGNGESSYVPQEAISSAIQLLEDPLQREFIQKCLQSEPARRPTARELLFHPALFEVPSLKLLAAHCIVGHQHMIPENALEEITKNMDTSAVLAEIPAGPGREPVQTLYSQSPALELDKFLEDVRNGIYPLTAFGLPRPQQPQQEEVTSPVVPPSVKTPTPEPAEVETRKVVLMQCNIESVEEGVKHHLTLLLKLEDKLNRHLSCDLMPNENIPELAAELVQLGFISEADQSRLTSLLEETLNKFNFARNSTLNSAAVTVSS
UniProt Q9Y2X3: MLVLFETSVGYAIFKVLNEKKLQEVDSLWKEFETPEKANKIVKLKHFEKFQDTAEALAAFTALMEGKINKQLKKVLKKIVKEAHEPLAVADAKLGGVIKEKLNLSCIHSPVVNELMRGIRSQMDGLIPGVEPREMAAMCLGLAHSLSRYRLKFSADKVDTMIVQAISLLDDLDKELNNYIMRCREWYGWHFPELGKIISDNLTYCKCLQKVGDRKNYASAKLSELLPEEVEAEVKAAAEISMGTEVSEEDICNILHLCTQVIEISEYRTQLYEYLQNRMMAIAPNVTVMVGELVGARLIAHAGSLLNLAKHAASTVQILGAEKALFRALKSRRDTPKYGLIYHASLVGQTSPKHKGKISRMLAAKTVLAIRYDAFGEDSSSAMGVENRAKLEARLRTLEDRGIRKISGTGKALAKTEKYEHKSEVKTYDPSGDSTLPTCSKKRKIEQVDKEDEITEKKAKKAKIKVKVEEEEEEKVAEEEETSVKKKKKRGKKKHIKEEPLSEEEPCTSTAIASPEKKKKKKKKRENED
UniProt Q8TAT6: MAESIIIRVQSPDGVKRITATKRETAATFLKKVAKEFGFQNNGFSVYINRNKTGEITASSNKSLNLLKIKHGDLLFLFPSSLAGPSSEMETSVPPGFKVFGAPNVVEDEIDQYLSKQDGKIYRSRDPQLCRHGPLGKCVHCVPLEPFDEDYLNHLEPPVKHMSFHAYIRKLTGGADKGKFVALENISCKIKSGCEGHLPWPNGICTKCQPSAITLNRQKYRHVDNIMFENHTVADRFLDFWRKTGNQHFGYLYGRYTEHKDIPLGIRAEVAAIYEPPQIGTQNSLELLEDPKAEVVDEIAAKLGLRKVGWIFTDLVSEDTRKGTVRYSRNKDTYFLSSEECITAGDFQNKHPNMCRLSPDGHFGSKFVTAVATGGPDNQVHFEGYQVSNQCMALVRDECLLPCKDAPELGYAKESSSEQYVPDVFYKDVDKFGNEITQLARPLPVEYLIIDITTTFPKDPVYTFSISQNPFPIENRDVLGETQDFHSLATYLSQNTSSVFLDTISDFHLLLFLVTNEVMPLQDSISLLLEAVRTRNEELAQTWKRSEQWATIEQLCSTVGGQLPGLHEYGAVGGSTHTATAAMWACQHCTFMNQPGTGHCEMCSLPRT
UniProt Q96CB9: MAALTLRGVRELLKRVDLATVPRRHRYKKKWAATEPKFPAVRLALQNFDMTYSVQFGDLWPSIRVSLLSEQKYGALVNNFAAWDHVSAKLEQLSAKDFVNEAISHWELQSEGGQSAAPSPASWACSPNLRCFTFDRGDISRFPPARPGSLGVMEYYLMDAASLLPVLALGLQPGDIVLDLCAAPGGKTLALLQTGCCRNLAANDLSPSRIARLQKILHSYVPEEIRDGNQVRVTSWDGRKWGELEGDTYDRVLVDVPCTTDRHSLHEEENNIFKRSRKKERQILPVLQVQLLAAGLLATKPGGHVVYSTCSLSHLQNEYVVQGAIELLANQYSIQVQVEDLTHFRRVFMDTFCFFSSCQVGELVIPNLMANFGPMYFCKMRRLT
UniProt Q8TCD5: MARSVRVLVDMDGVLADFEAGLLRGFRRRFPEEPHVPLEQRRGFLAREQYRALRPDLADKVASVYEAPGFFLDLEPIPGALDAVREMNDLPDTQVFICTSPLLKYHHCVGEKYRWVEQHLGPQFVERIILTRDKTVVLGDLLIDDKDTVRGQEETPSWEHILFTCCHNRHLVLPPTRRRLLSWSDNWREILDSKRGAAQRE
UniProt P29474: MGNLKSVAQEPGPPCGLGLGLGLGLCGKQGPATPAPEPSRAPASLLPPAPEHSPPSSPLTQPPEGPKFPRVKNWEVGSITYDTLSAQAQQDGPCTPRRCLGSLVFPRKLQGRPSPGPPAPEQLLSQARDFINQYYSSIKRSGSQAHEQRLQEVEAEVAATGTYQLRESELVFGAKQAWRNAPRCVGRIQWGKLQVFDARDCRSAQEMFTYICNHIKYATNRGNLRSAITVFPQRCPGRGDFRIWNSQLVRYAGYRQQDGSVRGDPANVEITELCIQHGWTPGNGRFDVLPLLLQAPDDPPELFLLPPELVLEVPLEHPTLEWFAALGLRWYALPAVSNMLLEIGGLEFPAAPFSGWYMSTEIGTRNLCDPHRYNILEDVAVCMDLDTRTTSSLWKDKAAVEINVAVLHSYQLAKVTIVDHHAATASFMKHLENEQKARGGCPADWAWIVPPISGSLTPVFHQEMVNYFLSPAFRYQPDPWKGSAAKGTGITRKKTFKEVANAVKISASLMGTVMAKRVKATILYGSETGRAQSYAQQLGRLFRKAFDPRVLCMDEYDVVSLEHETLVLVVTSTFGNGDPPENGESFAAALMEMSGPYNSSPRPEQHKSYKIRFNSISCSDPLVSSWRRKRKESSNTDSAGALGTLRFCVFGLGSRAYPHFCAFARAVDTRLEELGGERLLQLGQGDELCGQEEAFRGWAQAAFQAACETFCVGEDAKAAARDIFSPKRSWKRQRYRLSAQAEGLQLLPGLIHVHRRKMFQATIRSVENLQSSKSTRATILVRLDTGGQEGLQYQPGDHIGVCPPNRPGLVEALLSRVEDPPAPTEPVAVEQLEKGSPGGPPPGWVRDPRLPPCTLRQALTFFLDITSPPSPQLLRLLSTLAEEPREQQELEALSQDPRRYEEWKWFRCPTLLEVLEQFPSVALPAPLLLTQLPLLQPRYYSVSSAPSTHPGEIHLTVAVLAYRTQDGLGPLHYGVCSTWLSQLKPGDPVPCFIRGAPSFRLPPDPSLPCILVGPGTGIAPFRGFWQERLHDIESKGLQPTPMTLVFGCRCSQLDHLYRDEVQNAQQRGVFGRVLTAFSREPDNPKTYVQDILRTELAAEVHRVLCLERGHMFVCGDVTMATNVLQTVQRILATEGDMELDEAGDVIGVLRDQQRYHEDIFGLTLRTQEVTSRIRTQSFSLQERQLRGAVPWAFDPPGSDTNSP
UniProt Q8WV22: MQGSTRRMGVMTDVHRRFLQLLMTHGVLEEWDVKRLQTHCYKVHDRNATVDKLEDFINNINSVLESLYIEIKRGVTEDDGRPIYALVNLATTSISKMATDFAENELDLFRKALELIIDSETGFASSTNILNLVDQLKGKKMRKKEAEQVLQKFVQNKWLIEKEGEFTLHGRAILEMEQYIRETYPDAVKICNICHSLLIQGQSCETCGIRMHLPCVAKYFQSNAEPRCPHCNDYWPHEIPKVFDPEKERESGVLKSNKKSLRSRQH
UniProt Q96DE0: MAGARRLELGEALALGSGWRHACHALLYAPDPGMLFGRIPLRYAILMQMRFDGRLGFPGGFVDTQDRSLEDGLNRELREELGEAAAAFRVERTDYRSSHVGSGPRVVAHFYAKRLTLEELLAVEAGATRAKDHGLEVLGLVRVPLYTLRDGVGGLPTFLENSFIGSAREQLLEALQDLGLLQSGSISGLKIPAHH
UniProt O95989: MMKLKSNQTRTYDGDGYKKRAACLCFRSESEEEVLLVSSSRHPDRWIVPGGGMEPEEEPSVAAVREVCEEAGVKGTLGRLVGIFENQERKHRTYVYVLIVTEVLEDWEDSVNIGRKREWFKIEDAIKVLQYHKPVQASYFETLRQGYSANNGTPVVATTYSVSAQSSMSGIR
UniProt O43809, whole entry, looked up: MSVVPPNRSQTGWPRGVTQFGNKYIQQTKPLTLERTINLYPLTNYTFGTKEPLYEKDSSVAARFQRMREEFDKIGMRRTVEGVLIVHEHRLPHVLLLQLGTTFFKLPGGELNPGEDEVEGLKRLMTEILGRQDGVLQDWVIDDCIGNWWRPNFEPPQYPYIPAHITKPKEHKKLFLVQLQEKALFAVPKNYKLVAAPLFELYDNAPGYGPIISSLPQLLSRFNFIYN
UniProt Q86WQ0: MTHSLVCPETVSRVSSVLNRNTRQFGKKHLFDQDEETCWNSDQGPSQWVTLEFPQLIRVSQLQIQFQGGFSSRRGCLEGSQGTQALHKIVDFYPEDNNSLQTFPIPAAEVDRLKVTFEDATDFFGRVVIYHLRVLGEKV
UniProt P22392, whole entry, looked up: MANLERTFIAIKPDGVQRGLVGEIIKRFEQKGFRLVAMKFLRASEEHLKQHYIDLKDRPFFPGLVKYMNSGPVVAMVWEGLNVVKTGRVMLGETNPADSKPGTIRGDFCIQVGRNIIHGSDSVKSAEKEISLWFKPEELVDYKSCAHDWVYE
UniProt P49902: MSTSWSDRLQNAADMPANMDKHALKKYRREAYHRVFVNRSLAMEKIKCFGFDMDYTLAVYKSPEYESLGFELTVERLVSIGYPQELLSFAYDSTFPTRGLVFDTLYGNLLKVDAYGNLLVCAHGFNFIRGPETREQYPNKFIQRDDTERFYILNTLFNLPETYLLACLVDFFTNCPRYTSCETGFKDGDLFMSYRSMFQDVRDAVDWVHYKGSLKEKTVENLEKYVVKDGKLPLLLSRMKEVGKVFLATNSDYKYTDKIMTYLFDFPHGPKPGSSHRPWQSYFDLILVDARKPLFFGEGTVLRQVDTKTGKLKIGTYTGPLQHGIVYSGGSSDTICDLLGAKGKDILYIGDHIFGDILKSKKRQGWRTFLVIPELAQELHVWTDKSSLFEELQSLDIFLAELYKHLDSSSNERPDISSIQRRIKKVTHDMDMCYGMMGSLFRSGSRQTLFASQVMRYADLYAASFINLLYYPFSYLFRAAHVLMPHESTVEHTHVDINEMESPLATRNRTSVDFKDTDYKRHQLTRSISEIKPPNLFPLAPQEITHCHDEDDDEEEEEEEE
UniProt Q9BSC4: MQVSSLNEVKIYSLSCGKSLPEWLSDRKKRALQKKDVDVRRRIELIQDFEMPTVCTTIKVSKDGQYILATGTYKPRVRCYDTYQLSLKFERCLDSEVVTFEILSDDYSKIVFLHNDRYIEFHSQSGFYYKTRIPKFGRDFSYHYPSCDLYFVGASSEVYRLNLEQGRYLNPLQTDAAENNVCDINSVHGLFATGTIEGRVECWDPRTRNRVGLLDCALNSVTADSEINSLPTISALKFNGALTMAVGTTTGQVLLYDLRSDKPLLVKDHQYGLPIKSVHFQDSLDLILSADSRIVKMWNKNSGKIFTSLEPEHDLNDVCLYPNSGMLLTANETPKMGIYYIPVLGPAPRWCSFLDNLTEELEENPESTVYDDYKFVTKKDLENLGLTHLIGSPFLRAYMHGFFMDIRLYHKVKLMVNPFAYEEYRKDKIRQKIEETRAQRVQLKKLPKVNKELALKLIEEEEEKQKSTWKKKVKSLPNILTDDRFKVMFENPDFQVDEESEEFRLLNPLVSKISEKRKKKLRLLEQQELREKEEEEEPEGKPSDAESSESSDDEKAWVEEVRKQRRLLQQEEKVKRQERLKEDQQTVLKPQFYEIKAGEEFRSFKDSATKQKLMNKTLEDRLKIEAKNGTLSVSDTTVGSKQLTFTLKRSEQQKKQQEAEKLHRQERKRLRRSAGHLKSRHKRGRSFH

log2 fold change, inactive:
NOL3 isoform 3 (UniProt O60936) -0.092
NOS1AP (UniProt O75052) 0.142
NUDCD3 (UniProt Q8IVD9) 0.007
NOC4L (UniProt Q9BVI4) 0.001
NUDC (UniProt Q9Y266) -0.007
NRBP1 (UniProt Q9UHY1) -0.065
NME2P1 (UniProt O60361) 0.025
NT5C3B (UniProt Q969T7) -0.003
NME6 (UniProt O75414) -0.01
NOP58 (UniProt Q9Y2X3) -0.002
NMU (UniProt P48645) -0.064
NSMCE3 (UniProt Q96MG7) -0.056
NT5C3A (UniProt Q9H0P0) 0.026
NOL6 (UniProt Q9H6R4) 0.048
NUP155 (UniProt O75694) 0.075
NOL8 (UniProt Q76FK4) 0.067
NPRL3 (UniProt Q12980) 0.032
NPLOC4 isoform 2 (UniProt Q8TAT6) -0.016
NSUN4 (UniProt Q96CB9) 0.089
NT5C (UniProt Q8TCD5) -0.02
NUDT4 (UniProt Q9NZJ9) 0.028
NOS3 (UniProt P29474) 0.029
NSMCE1 (UniProt Q8WV22) 0.046
NOSTRIN (UniProt Q8IVI9) 0.028
NMRAL1 (UniProt Q9HBL8) 0.047
NUDT16 (UniProt Q96DE0) -0.007
NUDT3 (UniProt O95989) -0.003
NTHL1 (UniProt P78549) -0.081
NUMB (UniProt P49757) -0.014
NUDT21 (UniProt O43809) -0.039
NR2C2AP isoform 2 (UniProt Q86WQ0) 0.029
NPTN (UniProt Q9Y639) -0.031
NME2 isoform 2 (UniProt P22392) -0.023
NT5C2 (UniProt P49902) 0.03
NRBF2 (UniProt Q96F24) 0.063
NOP2 isoform 4 (UniProt P46087) 0.027
NOL10 (UniProt Q9BSC4) -0.147
NSDHL (UniProt Q15738) 0.063

What follows are targets tested with O=C1NC(=O)C(c2cnc3ccccn23)=C1c1cn2c3c(cc(F)cc13)CN(C(=O)N1CCCCC1)CC2 in the same assay as above.
Summary of the method: as §1

log2 fold change, inactive:
NOL3 isoform 3 (UniProt O60936) -0.119
NOS1AP (UniProt O75052) -0.303
NUDCD3 (UniProt Q8IVD9) -0.029
NOC4L (UniProt Q9BVI4) -0.006
NUDC (UniProt Q9Y266) -0.025
NRBP1 (UniProt Q9UHY1) -0.012
NME2P1 (UniProt O60361) -0.168
NT5C3B (UniProt Q969T7) 0.16
NME6 (UniProt O75414) -0.022
NOP58 (UniProt Q9Y2X3) 0.016
NMU (UniProt P48645) 0.013
NSMCE3 (UniProt Q96MG7) 0.008
NT5C3A (UniProt Q9H0P0) 0.029
NOL6 (UniProt Q9H6R4) 0.103
NUP155 (UniProt O75694) -0.026
NOL8 (UniProt Q76FK4) 0.018
NPRL3 (UniProt Q12980) -0.045
NPLOC4 isoform 2 (UniProt Q8TAT6) 0.018
NSUN4 (UniProt Q96CB9) 0.046
NT5C (UniProt Q8TCD5) -0.06
NUDT4 (UniProt Q9NZJ9) 0.03
NSMCE1 (UniProt Q8WV22) 0.041
NOSTRIN (UniProt Q8IVI9) 0.019
NMRAL1 (UniProt Q9HBL8) -0.04
NUDT16 (UniProt Q96DE0) 0.031
NUDT3 (UniProt O95989) -0.079
NTHL1 (UniProt P78549) 0.032
NUMB (UniProt P49757) -0.066
NUDT21 (UniProt O43809) -0.038
NR2C2AP isoform 2 (UniProt Q86WQ0) -0.029
NPTN (UniProt Q9Y639) 0.04
NME2 isoform 2 (UniProt P22392) 0.004
NT5C2 (UniProt P49902) 0.011
NRBF2 (UniProt Q96F24) -0.023
NOP2 isoform 4 (UniProt P46087) 0.009
NOL10 (UniProt Q9BSC4) -0.054
NSDHL (UniProt Q15738) -0.041
